Laboratory results reported in patent US20240018255A1.
Substitutions are numbered along the chain they refer to. Results are given in words; binding and its absence hold for the method and conditions named. Some entries that bind do so weakly or less than the wild type.

By UniProt entry, the sequences of proteins in these tests, tags left out. Residues count along the entry.
UniProt P78324, residues 31-504: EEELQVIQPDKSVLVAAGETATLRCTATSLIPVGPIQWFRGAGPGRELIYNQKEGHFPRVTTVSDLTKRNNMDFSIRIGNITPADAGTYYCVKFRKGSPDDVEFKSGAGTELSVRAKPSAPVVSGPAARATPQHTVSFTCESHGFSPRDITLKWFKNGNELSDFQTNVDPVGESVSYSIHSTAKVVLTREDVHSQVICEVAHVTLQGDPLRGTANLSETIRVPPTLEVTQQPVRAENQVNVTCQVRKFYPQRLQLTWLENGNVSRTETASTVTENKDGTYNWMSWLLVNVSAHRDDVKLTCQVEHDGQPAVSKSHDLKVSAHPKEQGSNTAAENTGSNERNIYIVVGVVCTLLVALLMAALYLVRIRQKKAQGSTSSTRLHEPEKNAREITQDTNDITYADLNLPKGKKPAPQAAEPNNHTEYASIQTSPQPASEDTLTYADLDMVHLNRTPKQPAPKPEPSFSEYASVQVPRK

B1: QP256253 (humanized anti-SIRPα antibody, QP163164 humanized clone) (antibody, human IgG4, V domains shown)
VH: QVQLVQSGAEVKKPGASVKVSCKASGYTFTNYWINWVRQAPGQGLEWIAMIDPSDSETHYNQIFKDRATLTTDTSTSTAYMELRSLRSDDTAVYYCAMDYGSLYAMDYWGRGTLVTVSS
VL: DIVLTQSPDSLAVSLGERATINCRASKSVSSSGYNYIFWYQQKPGQPPKLLIYLASNLDSGVPDRFSGSGSGTDFTLTISSLQAEDVAVYYCQHSRELPTFGQGTKLEIK
B2: QP256279 (affinity-matured humanized anti-SIRPα antibody) (antibody, IgG4, V domains shown)
VH: B1 VH
VL: B1 VL with K27Q, S30R, Y36W, L58R
B3: QP2561589 (affinity-matured humanized anti-SIRPα antibody) (antibody, IgG4, V domains shown)
VH: B1 VH
VL: B1 VL with H94E, R96W
B4: QP2561586 (affinity-matured humanized anti-SIRPα antibody) (antibody, IgG4, V domains shown)
VH: B1 VH
VL: B1 VL with H94E

Each binder was assayed against human SIRPα naturally expressed on human renal clear cell adenocarcinoma 786-O cells (human) (UniProt P78324) (assay: FACS on 786-O cells, PE-anti human FC).

binding, binds:
B1
B2
B3
B4
